# Reference: patent publication US7772383B2, “Chemical PCR: Compositions for enhancing polynucleotide amplification reactions” (The Trustees of Princeton University, priority 2002, dated 2010)
# Protein sequences, listed by entry. Tags and fused reporters are not part of them.
# UniProt P19821, whole entry: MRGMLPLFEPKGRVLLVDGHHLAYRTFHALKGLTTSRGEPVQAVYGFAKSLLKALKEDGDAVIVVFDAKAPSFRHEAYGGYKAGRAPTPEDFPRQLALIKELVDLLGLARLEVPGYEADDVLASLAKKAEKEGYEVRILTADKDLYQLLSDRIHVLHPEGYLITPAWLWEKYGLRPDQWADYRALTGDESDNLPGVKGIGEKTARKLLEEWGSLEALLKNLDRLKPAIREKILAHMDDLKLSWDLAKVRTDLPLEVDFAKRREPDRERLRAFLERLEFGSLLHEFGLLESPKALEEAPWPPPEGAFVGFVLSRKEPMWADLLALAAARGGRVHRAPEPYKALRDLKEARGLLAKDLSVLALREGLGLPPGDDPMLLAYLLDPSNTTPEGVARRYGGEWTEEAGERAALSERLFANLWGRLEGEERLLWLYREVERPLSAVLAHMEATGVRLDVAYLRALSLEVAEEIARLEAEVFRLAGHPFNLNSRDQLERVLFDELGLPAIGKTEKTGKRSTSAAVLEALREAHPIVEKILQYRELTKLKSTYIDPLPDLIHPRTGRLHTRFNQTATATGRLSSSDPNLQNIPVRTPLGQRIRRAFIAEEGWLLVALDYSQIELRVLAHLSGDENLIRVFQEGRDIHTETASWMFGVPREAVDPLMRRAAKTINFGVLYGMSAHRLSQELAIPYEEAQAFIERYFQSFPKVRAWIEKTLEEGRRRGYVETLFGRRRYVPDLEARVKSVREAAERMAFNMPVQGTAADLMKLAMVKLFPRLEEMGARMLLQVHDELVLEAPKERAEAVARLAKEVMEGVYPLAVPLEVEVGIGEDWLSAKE
# The name of at least one read-out is uncertain.
# Biological target: T1, Taq polymerase (Thermus aquaticus, UniProt P19821)
# T1 construct: purchased Stratagene
# Assay: Predicted thermostability (half-life) of Taq polymerase in the presence of diols
# Format: biochemical
# Settings: 95° C.; absence of template; 0.9M 1,2-butanediol, 0.6M 1,5-pentanediol; predicted based on thermodynamic data
# Experimental: It is possible that this discrepancy was due to the greatly diminished thermostability of the polymerase at the cutoff concentrations. Based on thermodynamic data, Taq polymerase in the absence of template is predicted to have a half-life of about 8 seconds at 95° C. in the presence of 0.9M 1,2-butanediol and 10 seconds in the presence of 0.6M 1,5-pentanediol. These values will be increased in the presence of template, but will still be very low, especially during the initial cycles when template concentration is limited.
smiles,measurement,value
"CCC(O)CO (stereo not shown) [1,2-Butanediol]",half-life of Taq polymerase,about 8 seconds
